Measured values taken from PubChem BioAssay AID1508600 (Functional Genomics Laboratory (NCATS/FGL), 2020).
Hit rate of the full screen: of about 53,000 sequences, about 3,700 (7%) were called active.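 Rule for the calls: active = gene knockdowns whose robust z-score for IL-1 alpha signal is at least 2 or at most -2, so actives lie on both sides; inactive = the rest.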 This is one part of the list.

Assay: Components of the Cytosolic LPS Sensing Pathway: Gene Identification via Genome-wide siRNA Screen;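 note: robust z of the log signal after scaling to non-targeting control siRNA wells of the plate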
Conditions: RAW264.7 macrophages, IL-1a HTRF, actives lie on both sides, screened at 100 nM (by protocol), cells primed 5 h with Pam3CSK4 first
In short: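 Read-out: IL-1a HTRF on supernatant, divided by plate negative-control median ×100, log-transformed and converted to robust z-score. Cells were RAW264.7 given 100 nM siRNA, Pam3CSK4-primed 5 hours, then LipidA-transfected 24 hour.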

Q: With GGCUUUAAUGCCUGUAUUATT against Ilvbl as the sequence, how does the z-score read?
A: The z-score was inactive: -0.185.

Q: For GGACCCAGUCAUCUAGUAUTT against Elmo2, which z-score is on record?
A: The z-score was inactive: 0.983.

Q: With GGCUAAAGGUGUUGAUUUUTT against Slitrk6 as the sequence, how does the z-score read?
A: Its z-score is inactive: 0.744.

Q: With GCAAGAUUUAUCCCAGUCGTT against Rnf2 as the sequence, how does the z-score read?
A: The z-score was inactive: -1.83.

Q: For CCAGACCAUUAACUUGAUUTT against Lsm8, which z-score is on record?
A: Its z-score is inactive: -0.739.

Q: With CCACGGGAGACAAGAUUCUTT against Hmbs as the sequence, how does the z-score read?
A: Its z-score is active: 3.18.

Q: Which z-score does the source give for GGCAGAUUCUAAAUAUAGCTT against Itga9 here?
A: Its z-score is inactive: -0.52.

Q: With GGCAAGUAUGUGUCCUUUGTT against Fhl3 as the sequence, how does the z-score read?
A: The z-score was inactive: -1.84.

Q: With GGAGGUGAUGCAGAUGCUGTT against Gpi1 as the sequence, how does the z-score read?
A: The z-score was active: 3.06.

Q: Which z-score does the source give for GGGCGAGGAAGAAGAAUCUTT against Atad2b here?
A: The z-score was inactive: 0.648.

Q: Which z-score does the source give for GGCUACCCAGGGAAUCAAGTT against Snapc4 here?
A: Its z-score is inactive: 0.629.

Q: For GGCCUAUUUUAUCCAUAGUTT against Olfr623, which z-score is on record?
A: The z-score was inactive: 0.194.

Q: With GGAAGAAAAAGAUGAGAAATT against Hrc as the sequence, how does the z-score read?
A: The z-score was inactive: 0.394.

Q: Which z-score does the source give for GCCUUUGUGGACCAUCCAATT against Thy1 here?
A: Its z-score is inactive: -0.954.

Q: For CCUUCAAACCUUUAAGCUUTT against Kcnk13, which z-score is on record?
A: Its z-score is inactive: 0.573.

Q: With CGGCGAUGGAAAAAAAUUUTT against Tmem178 as the sequence, how does the z-score read?
A: The z-score was inactive: 1.04.

Q: With CCAUACUGUCAUAGCCCAATT against Olfr646 as the sequence, how does the z-score read?
A: Its z-score is inactive: -0.425.

Q: Which z-score does the source give for CGGAAAGGAGCUAAAUGGCTT against Boc here?
A: Its z-score is inactive: -0.437.

Q: For GGCUACAAGGAGAAGUUUGTT against Traf3, which z-score is on record?
A: Its z-score is active: 2.02.

Q: Which z-score does the source give for GCAGGAUUAUGACACGUAUTT against Dgkq here?
A: The z-score was inactive: 1.13.

Q: For GGGAACAUGCUCAUUGCAGTT against Olfr96, which z-score is on record?
A: The z-score was inactive: 1.42.

Q: Which z-score does the source give for GCCAGUCCUGAUAGCAUCATT against Rhox6 here?
A: The z-score was active: -3.2.

Q: Which z-score does the source give for CGAGCCUCUGUGAUAUCCATT against Cst11 here?
A: The z-score was active: -2.69.

Q: For GGACUACGAAUACCCAUCGTT against Cck, which z-score is on record?
A: The z-score was inactive: -0.42.

Q: Which z-score does the source give for GUGACACUGCUGGGAAACATT against Olfr459 here?
A: The z-score was inactive: -0.972.

Q: For GCAAUAUUUGGGCUAUUAUTT against Ss18, which z-score is on record?
A: Its z-score is inactive: -0.588.

Q: With CGUCAAUUCACACCAUUCATT against Gsk3a as the sequence, how does the z-score read?
A: The z-score was inactive: -1.25.

Q: For “GGCAAUCAUGUGGACUUCATT against C230071H18Rik”, which z-score is on record?
A: The z-score was inactive: 0.714.

Q: Which z-score does the source give for CCUGUAUUGGGAACAAUGUTT against Asphd2 here?
A: The z-score was inactive: 1.16.

Q: Which z-score does the source give for “GCUUUUCGGGCAGGAGAGUTT against 1700034I23Rik” here?
A: Its z-score is inactive: 0.396.

Q: For GGGUACCUCGUGGUACAUUTT against Rapgef3, which z-score is on record?
A: The z-score was inactive: 0.352.

Q: For CCAAGUAGGUCCUAGUCUATT against Cfap126, which z-score is on record?
A: Its z-score is inactive: -0.648.

Q: With CGGAGGAGAUAUUUAACCATT against Mtif3 as the sequence, how does the z-score read?
A: Its z-score is inactive: -0.294.

Q: With CCAGCUAUGAUUUACAUCUTT against Tdpoz1 as the sequence, how does the z-score read?
A: The z-score was inactive: -0.0659.

Q: For GAUCAAAGAAACUCCUCCCTT against Zbtb25, which z-score is on record?
A: The z-score was inactive: 1.26.

Q: With GGCAAAAUAUUGCACAGCGTT against Tsga10 as the sequence, how does the z-score read?
A: Its z-score is inactive: -0.474.

Q: With GCUCCUAAAACAUGAGAAUTT against Cdk9 as the sequence, how does the z-score read?
A: Its z-score is inactive: -1.2.

Q: For GGUAAUGAAUAGGAAACUCTT against Ostm1, which z-score is on record?
A: Its z-score is inactive: -0.773.

Q: With GCCUCUCGGUUAAUUGAUCTT against Lyve1 as the sequence, how does the z-score read?
A: The z-score was inactive: -0.404.

Q: For GGAUUUCUUUGUGGAGCCCTT against Gm11961, which z-score is on record?
A: The z-score was inactive: -1.18.

Q: With GGAGUGUGUAAAGACAUAATT against Rnase2a as the sequence, how does the z-score read?
A: Its z-score is inactive: -0.685.

Q: With GCGGUUCGCUGUUUGUUUCTT against Zbtb11os1 as the sequence, how does the z-score read?
A: Its z-score is active: 2.54.

Q: With GCGCAUUAAGGCAGAAAAGTT against Chaf1a as the sequence, how does the z-score read?
A: Its z-score is inactive: -0.931.

Q: With CCAGGAAGUUACAAUUCAATT against Ccpg1 as the sequence, how does the z-score read?
A: Its z-score is inactive: 0.181.

Q: Which z-score does the source give for CGGUAUCUUGGUCAACCUGTT against Naaa here?
A: Its z-score is inactive: 0.955.

Q: Which z-score does the source give for GGGAUAGCUGUCACCUUCUTT against Rad9a here?
A: The z-score was inactive: -0.742.

Q: For GCUGUUUUGAGGAGCCUUCTT against Zfp410, which z-score is on record?
A: Its z-score is inactive: -0.962.

Q: For GCUCACUGAAUCUCUACAUTT against Amph, which z-score is on record?
A: Its z-score is inactive: -1.25.

Q: With GGGAUACUUUUUAUUCAGGTT against Nmu as the sequence, how does the z-score read?
A: Its z-score is inactive: -0.0461.

Q: With CGAGGUCAUCAUCAUCGAATT against Kyat1 as the sequence, how does the z-score read?
A: The z-score was inactive: -0.104.

Q: Which z-score does the source give for GGAAGUCCGUGUUAAGAUUTT against Adh7 here?
A: Its z-score is inactive: -0.755.

Q: For GGCUGUCCGGUUAAAUCCATT against Ifit1, which z-score is on record?
A: The z-score was inactive: 0.261.

Q: For GCGACAUAAACAUUGUGGUTT against Adamts18, which z-score is on record?
A: Its z-score is inactive: 1.32.

Q: With GAGAGUGUGCUUCACACACTT against Olfr646 as the sequence, how does the z-score read?
A: The z-score was inactive: -0.339.

Q: With GGUAUUUUGUAGCACUUAATT against Fgf20 as the sequence, how does the z-score read?
A: The z-score was inactive: 0.00656.

Q: Which z-score does the source give for CCCUGUAACCAAUAAGAAGTT against Snrpa1 here?
A: Its z-score is inactive: -0.401.

Q: For GGGUUGGAGAUAGGUUUUUTT against Rundc1, which z-score is on record?
A: The z-score was inactive: 1.53.

Q: For CGGAUGCCGCUGAUAAGAUTT against Pofut2, which z-score is on record?
A: Its z-score is inactive: 0.215.

Q: For GGCAGUUAGAUGUCAGUGCTT against Edn1, which z-score is on record?
A: Its z-score is inactive: 0.78.

Q: With GGUCAAUACCAUGUGUAUUTT against Rev1 as the sequence, how does the z-score read?
A: Its z-score is inactive: 0.617.

Q: With GCCUACUUGGAUGUUAAUGTT against Pappa as the sequence, how does the z-score read?
A: The z-score was inactive: 0.964.

Q: With CCCAACUAUACUGUCUACUTT against Slc22a6 as the sequence, how does the z-score read?
A: The z-score was inactive: 0.988.

Q: For GGAUCUCCAGAGCAGAAAATT against Nckap5, which z-score is on record?
A: The z-score was inactive: -1.64.

Q: With GGACUUUUCUUUUGGAAGGTT against Nbl1 as the sequence, how does the z-score read?
A: Its z-score is inactive: -0.08.

Q: Which z-score does the source give for GCAUUUGGUUCGACAUAUATT against Pcnx here?
A: Its z-score is inactive: -0.187.

Q: With GGUUGAUGGGUAAUAAACUTT against Nfatc4 as the sequence, how does the z-score read?
A: Its z-score is active: -2.16.

Q: With CCUGGUACCUCGAUUCCAUTT against Lcn9 as the sequence, how does the z-score read?
A: Its z-score is inactive: 0.762.

Q: With GGAAUCCAUGCAGAAAUAATT against Pcdhga6 as the sequence, how does the z-score read?
A: The z-score was inactive: 0.681.
